The list does not hold the whole screen: it gathers tests that were run many times, whatever their T/C, doses with no T/C, and many T/C values between a quarter and a half above the control. Other doses and runs of a compound stand elsewhere. T/C: endpoint of the treated group in % of that of the vehicle group. Some entries give survivors of the animals treated and no T/C: the source files T/C as zero there, which appears to mark a toxic dose or a test without result, not a measured value. Some doses without a T/C left all or most animals alive at the check, yet need not have been tolerated: survival well below the control is almost never listed, so the zero probably covers shortened survival too. Counts of survivors are from the toxicity check (mostly the fifth day) where no day follows; animals may have died later. Schedules are NCI's codes, read here as Q, the interval in days (D) or hours (H), X, the number of doses. Where survival is the endpoint, this PubChem deposit counts one and a half times the control or more as active, and values a quarter to a half above the control carry no call in these data; other NCI protocols may use other cut-offs. Some entries hold several experiments; the values are given in rising order. Additions like (4×) say how often a value occurs here.

In the test the test system is CD2F1 mice, L1210 leukemia ip, survival T/C. In words: NCI In Vivo Anticancer Drug Screen. Data for tumor model L1210 Leukemia (intraperitoneal) in CD2F1 (CDF1) mice. The note with it: higher T/C = longer survival. The method in brief:
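Mice carrying a transplanted tumor received test compound or vehicle alone. The value is the measurement in the treated group divided by that in the vehicle-treated control group.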

The mark [1] stands for this setting: T/C endpoint: mean survival time, dose: 100.0 mg/kg/injection, schedule: Q04DX003 (ip), vehicle: saline with Tween-80.
The mark [2] stands for this setting: T/C endpoint: mean survival time, dose: 200.0 mg/kg/injection, schedule: Q04DX003 (ip), vehicle: saline with Tween-80.
[3] abbreviates: T/C endpoint: mean survival time, dose: 400.0 mg/kg/injection, schedule: Q04DX003 (ip), vehicle: saline with Tween-80.
Setting [4] is: T/C endpoint: median survival time, dose: 25.0 mg/kg/injection, schedule: Q01DX009 (ip), vehicle: Klucel (hydroxypropylcellulose) (HPC).
Setting [5] is: T/C endpoint: mean survival time, dose: 100.0 mg/kg/injection, schedule: Q01DX009 (ip), vehicle: saline with Tween-80.
Setting [6] is: T/C endpoint: mean survival time, dose: 400.0 mg/kg/injection, schedule: Q01DX009 (ip), vehicle: saline with Tween-80.
[7] abbreviates: T/C endpoint: mean survival time, dose: 150.0 mg/kg/injection, schedule: Q01DX001 (ip), vehicle: saline.
[8] abbreviates: T/C endpoint: mean survival time, dose: 300.0 mg/kg/injection, schedule: Q01DX001 (ip), vehicle: saline.
The mark [9] stands for this setting: T/C endpoint: mean survival time, dose: 200.0 mg/kg/injection, schedule: Q01DX009 (ip), vehicle: saline with Tween-80.

With `Fc1c(F)c(F)[c]([Sn]([c]2ccccc2)([c]2ccccc2)[c]2ccccc2)c(F)c1F`, the survivor count by setting is: (T/C endpoint: mean survival time, dose: 50.0 mg/kg/injection, schedule: Q04DX003 (ip), vehicle: saline with Tween-80) 6 of 6; under setting [1], 3 of 6; under setting [2], 2 of 6; under setting [3], 5 of 6.

`Cc1ncc(CO)c(C)n1`: the survivor count is listed as 0 of 6 (T/C endpoint: mean survival time, dose: 20.0 mg/kg/injection, schedule: Q01DX001 (ip), vehicle: saline with Tween-80); 0 of 6 (T/C endpoint: mean survival time, dose: 40.0 mg/kg/injection, schedule: Q01DX001 (ip), vehicle: saline with Tween-80); 0 of 6 (T/C endpoint: mean survival time, dose: 80.0 mg/kg/injection, schedule: Q01DX001 (ip), vehicle: saline with Tween-80).

As to `O=CC(CO)OC(C=O)n1cnc2c(=O)[nH]c(=O)[nH]c21` (stereo unspecified), the survivor count (T/C endpoint: mean survival time, dose: 200.0 mg/kg/injection, schedule: Q01DX005 (ip), vehicle: water) is listed as 4 of 6.

As for `CCn1c(=N)sc2ccc(C(=O)OC)cc21`, the survivor count was 3 of 6 under setting [1] and 0 of 6 under setting [3].

For `O=[N+]([O-])c1ccc(Cl)c2ncccc12`, under setting [3], the survivor count was 1 of 3.

Turning to `COc1cc(C2c3cc4c(cc3C(OC3CCCCO3)C3COC(=O)C23)OCO4)cc(OC)c1OC` (stereo unspecified), the T/C runs as follows: (T/C endpoint: median survival time, dose: 6.25 mg/kg/injection, schedule: Q01DX009 (ip), vehicle: Klucel (hydroxypropylcellulose) (HPC)) 138 % of control; (T/C endpoint: median survival time, dose: 12.5 mg/kg/injection, schedule: Q01DX009 (ip), vehicle: Klucel (hydroxypropylcellulose) (HPC)) 143 % of control; under setting [4], 134 % of control. The survivor count under setting [4] is on record as 3 of 6.

In the case of `CN(Cc1cnc2nc(N)nc(N)c2n1)c1ccc(C(=O)NC(CCC(=O)NC(CC(=O)O)C(=O)O)C(=O)O)cc1` (stereo unspecified), the T/C was 130 % of control (T/C endpoint: mean survival time, dose: 1.0 mg/kg/injection, schedule: Q01DX009 (ip), vehicle: sodium bicarbonate) and 137 % of control (T/C endpoint: mean survival time, dose: 2.0 mg/kg/injection, schedule: Q01DX009 (ip), vehicle: sodium bicarbonate). The survivor count runs as follows: (T/C endpoint: mean survival time, dose: 25.0 mg/kg/injection, schedule: Q01DX009 (ip), vehicle: sodium bicarbonate) 6 of 6; (T/C endpoint: mean survival time, dose: 50.0 mg/kg/injection, schedule: Q01DX009 (ip), vehicle: sodium bicarbonate) 5 of 6.

For `CCC(=O)OC1(c2ccccc2)CCN(CCCc2ccccc2Cl)CC1`, the T/C (T/C endpoint: mean survival time, dose: 12.5 mg/kg/injection, schedule: Q04DX002 (ip), vehicle: saline with Tween-80) is 128 % of control. The survivor count is, setting by setting: (T/C endpoint: mean survival time, dose: 200.0 mg/kg/injection, schedule: Q01DX001 (ip), vehicle: saline with Tween-80) 0 of 6; (T/C endpoint: mean survival time, dose: 400.0 mg/kg/injection, schedule: Q01DX001 (ip), vehicle: saline with Tween-80) 0 of 6.

On to `CCCCC(=O)OCC(=O)[C@]1(O)Cc2c(O)c3c(c(O)c2[C@@H](OC2CC(NC(=O)C(F)(F)F)C(O)C(C)O2)C1)C(=O)c1c(OC)cccc1C3=O` (stereo partly specified), for which the T/C was 128 % of control (T/C endpoint: mean survival time, dose: 16.0 mg/kg/injection, schedule: Q01DX009 (ip), vehicle: Klucel (hydroxypropylcellulose) (HPC)); 127 % of control (T/C endpoint: mean survival time, dose: 128.0 mg/kg/injection, schedule: Q01DX009 (ip), vehicle: water); 142 % of control (T/C endpoint: mean survival time, dose: 256.0 mg/kg/injection, schedule: Q01DX009 (ip), vehicle: water). The survivor count (T/C endpoint: mean survival time, dose: 256.0 mg/kg/injection, schedule: Q01DX009 (ip), vehicle: Klucel (hydroxypropylcellulose) (HPC)) is 5 of 6.

For the compound `CCOc1ccc(-n2c(-c3ccc(Br)cc3)csc2=NC(=O)c2ccccc2F)cc1`, the survivor count is given as 3 of 3 (T/C endpoint: mean survival time, dose: 50.0 mg/kg/injection, schedule: Q01DX009 (ip), vehicle: saline with Tween-80); 6 of 6 under setting [5]; 6 of 6 under setting [2]; 4 of 6 under setting [6]; 6 of 6 under setting [3]. Also, under setting [5], the T/C was 87 (2×) and 90 % of control.

As for `Cc1cc2cc3n(c2nn1)N=C(Cl)CC3`, the survivor count is, setting by setting: (T/C endpoint: mean survival time, dose: 400.0 mg/kg/injection, schedule: Q04DX002 (ip), vehicle: Klucel (hydroxypropylcellulose) (HPC)) 2 of 6 on day 6; (T/C endpoint: mean survival time, dose: 495.0 mg/kg/injection, schedule: Q04DX002 (ip), vehicle: Klucel (hydroxypropylcellulose) (HPC)) 5 of 8 on day 6; (T/C endpoint: mean survival time, dose: 600.0 mg/kg/injection, schedule: Q04DX002 (ip), vehicle: Klucel (hydroxypropylcellulose) (HPC)) 0 of 6 on day 6.

As for `c1ccc([As]2[As](c3ccccc3)[As](c3ccccc3)[As]2c2ccccc2)cc1` (stereo unspecified), the survivor count is 3 of 6 (T/C endpoint: mean survival time, dose: 75.0 mg/kg/injection, schedule: Q01DX001 (ip), vehicle: saline); 2 of 6 under setting [7]; 0 of 6 under setting [8].

On to `O=c1oc(-c2ccc3c(c2)OCO3)nc2ccccc12`, for which the survivor count under setting [3] is on record as 5 of 6.

Turning to `CC(CN(C)C)CN1c2ccccc2Sc2ccc(C(F)(F)F)cc21` (stereo unspecified), the survivor count is listed as 0 of 6 (T/C endpoint: mean survival time, dose: 25.0 mg/kg/injection, schedule: Q01DX009 (ip), vehicle: saline); 0 of 6 (T/C endpoint: mean survival time, dose: 100.0 mg/kg/injection, schedule: Q04DX003 (ip), vehicle: saline); 0 of 6 (T/C endpoint: mean survival time, dose: 200.0 mg/kg/injection, schedule: Q04DX003 (ip), vehicle: saline); 0 of 6 (T/C endpoint: mean survival time, dose: 400.0 mg/kg/injection, schedule: Q04DX003 (ip), vehicle: saline).

As for `COc1ccc(/C(C)=N\NC(=O)c2ccccc2)cc1`, the survivor count under setting [3] is 5 of 6.

On to `O=C(O)c1c[nH]c2ccc([N+](=O)[O-])cc2c1=O`, for which the T/C (T/C endpoint: mean survival time, dose: 200.0 mg/kg/injection, schedule: Q01DX001 (ip), vehicle: Klucel (hydroxypropylcellulose) (HPC)) was 128 % of control.

Take `COC1CC2C(C[CH]1[Hg][Cl])C2(Cl)Cl` (stereo unspecified): the survivor count reads like this: under setting [1], 0 of 6; under setting [2], 0 of 6; under setting [3], 0 of 6.

`C=C1C(=O)OC2/C=C(\C)CC/C=C(/C=O)C(OC(=O)C(C)C)C(O)C12` (stereo unspecified): the survivor count (T/C endpoint: mean survival time, dose: 16.0 mg/kg/injection, schedule: Q01DX009 (ip), vehicle: saline with Tween-80) was 1 of 6.

Regarding `NCC(Cl)c1ccccc1` (stereo unspecified), the survivor count under setting [6] is recorded as 1 of 6.

For the compound `CC(C)C(=O)OC1(C(C)c2ccccc2)C(=O)NC(=O)NC1=O` (stereo unspecified), the survivor count is 3 of 6 (T/C endpoint: mean survival time, dose: 25.0 mg/kg/injection, schedule: Q01DX009 (ip), vehicle: saline with Tween-80); 0 of 3 (T/C endpoint: mean survival time, dose: 50.0 mg/kg/injection, schedule: Q04DX002 (ip), vehicle: saline with Tween-80); 0 of 3 (T/C endpoint: mean survival time, dose: 100.0 mg/kg/injection, schedule: Q04DX002 (ip), vehicle: saline with Tween-80).

With `CN=NCCO`, the survivor count reads like this: (T/C endpoint: mean survival time, dose: 200.0 mg/kg/injection, schedule: Q01DX009 (ip), vehicle: saline) 0 of 6; (T/C endpoint: mean survival time, dose: 400.0 mg/kg/injection, schedule: Q01DX001 (ip), vehicle: saline) 0 of 6.

`O=C(CCl)Nc1cccc2c1CCCC2`: the survivor count under setting [3] is on record as 3 of 6.

On to `CNC(C1CCCCC1)C(C)OC(=O)c1ccc(N)cc1` (stereo unspecified), for which the survivor count reads like this: under setting [7], 3 of 6; under setting [8], 2 of 6.

Take `COc1ccc(OC)c(NC(=O)NNC(=O)c2ccccc2Cl)c1`: the survivor count runs as follows: under setting [5], 6 of 6; under setting [9], 5 of 6; under setting [6], 6 of 6.

`CCN(CC)c1cc(C(=O)O)cc(N(CC)CC)n1`: the T/C (T/C endpoint: median survival time, dose: 25.0 mg/kg/injection, schedule: Q01DX009 (ip), vehicle: other) was 128 % of control. For the same compound, the survivor count is, setting by setting: (T/C endpoint: median survival time, dose: 200.0 mg/kg/injection, schedule: Q01DX005 (ip), vehicle: acid diluted with saline) 1 of 6; (T/C endpoint: median survival time, dose: 400.0 mg/kg/injection, schedule: Q01DX005 (ip), vehicle: acid diluted with saline) 0 of 6.

Consider `COc1cc(OC)c(NC(=O)Oc2ccc(C=O)cc2OC)cc1Cl`, for which the survivor count under setting [9] is recorded as 3 of 3.

In the case of `CCC[CH2][Sn]([CH2]CC)([CH2]CCC)[O]C(=O)c1ccccc1`, under “T/C endpoint: mean survival time, dose: 3.13 mg/kg/injection, schedule: Q01DX009 (ip), vehicle: saline with Tween-80”, the survivor count was 1 of 3.

For the origin of these results see PubChem BioAssay AID256 (DTP/NCI, 2004).
